The campaign covered roughly 400,000 compounds. About 13,000 (3.2%) were called active. This list was built around the results that the source calls inconclusive (neither active nor inactive); the mix of calls is not that of the screen. Calls come from the whole dose curve; as a rule, active = well fitted cell-killing curve with a large enough effect; inconclusive = small, poorly fitted or top-dose-only effect, or effect the other way; inactive = flat fitted curve, though single readings scatter. Potencies beside an inconclusive call are fits to weak or partial responses and may not hold up.
Test: qHTS assay for MDR1-selective chemotherapeutics: Primary screen using the drug-selected MDR subline cells KB-V1; note: nearly all actives have a fitted effect of over 60% in size
Conditions: KB-V1 MDR cells viability, CellTiter-Glo, 72 h; activity change, negative = cytotoxicity: at 46.1 µM (top of the series)
Outline: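 Following 72 h at 37 degrees C with compound, KB-V1 cell viability was read by CellTiter-Glo luminescence, medium being phenol-red-free DMEM plus 10% FBS; concentration-response parameters came from normalized, curve-fitted qHTS data.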
% is set by controls: 0 for no effect and ±100 for the full control effect; potency is the fitted concentration of half-maximal effect.

Row | SMILES | Potency | activity change, negative = cytotoxicity
1 | Cc1ccc(C2(CCNS(=O)(=O)c3ccc(C)cc3)CCOC(C(C)C)C2)cc1 (configuration not stated) | active: 3.66 µM | –
2 | CC1CCC(C(C)C)C2=C1C(C#N)(C#N)C(C#N)(C#N)C(c1ccccc1)N2 (configuration not stated) | – | inactive: -24.9%
3 | CC(C)(C)c1ccccc1OCCOCCN1CCCCCC1 | inconclusive: 20.6 µM [cytotoxic, partial curve] | –
4 | O=C(Nc1cc(C(F)(F)F)ccc1N1CCOCC1)c1cncc(Br)c1 | inconclusive: 8.2 µM [cytotoxic, partial curve] | –
5 | COc1ccc(N(CC(=O)Nc2cccc(N(C)S(C)(=O)=O)c2)S(=O)(=O)c2ccc(F)cc2)cc1 | inconclusive: 20.6 µM [cytotoxic, single point] | –
6 | COc1ccc(Cn2c(C(=O)O)c(CNC3CCC(C)CC3)c3ccc(C)cc32)cc1 (configuration not stated) | – | inactive: 0%
7 | COc1ccc(CC(=O)N2CC(=O)Nc3ccc(Br)cc3C2c2ccc(F)cc2)cc1OC (configuration not stated) | inconclusive: 11.6 µM [rising, partial curve] | –
8 | C=C(C)C1CC=C(C)/C(=N/NC(=O)COc2ccccc2Cl)C1 (configuration not stated) | inconclusive: 0.291 µM [cytotoxic, full curve, poor fit] | –
9 | Cc1cccc(OCCCC(=O)NNC(=O)c2ccc(F)cc2)c1 | inconclusive: 29.1 µM [rising, single point] | –
10 | CN=c1scc(-c2cccs2)n1/N=C/c1ccccc1O | inconclusive: 20.6 µM [cytotoxic, single point] | –
11 | CC(C)(C)c1nnc(NC(=O)CN2C(=O)C3C4C=CC(C4)C3C2=O)s1 (configuration not stated) | inconclusive: 20.6 µM [cytotoxic, partial curve] | –
12 | COC[C@H]1CCCN1[C@H]1CS(=O)(=O)N[C@@H]1COCc1ccccc1 | – | inactive: 2.28%
13 | Clc1nc(Cl)c2ncn(-c3ccccc3)c2n1 | inconclusive: 25.9 µM [cytotoxic, single point] | –
14 | COc1ccc(NC(=O)C2Cc3c(-c4cccc(F)c4)ccnc3O2)cc1 (configuration not stated) | inconclusive: 13 µM [cytotoxic, partial curve] | –
15 | O=C1CC2(CCN(C(=O)c3c(F)cccc3Cl)CC2)Oc2ccccc21 | inconclusive: 18.4 µM [cytotoxic, single point] | –
16 | COc1cc(/C=N/n2cnnc2)ccc1OCC(=O)N1CCOCC1 | inconclusive: 29.1 µM [rising, single point] | –
17 | Cc1ccc(-n2nnnc2-c2cccs2)cc1[N+](=O)[O-] | – | inactive: -16.9%
18 | CCCNC(=S)N1CCN(CC)CC1 | inconclusive: 29.1 µM [rising, single point] | –
19 | O=C(N/N=C/c1c[nH]c2ccccc12)c1cc(-c2ccc3ccccc3c2)n[nH]1 | inconclusive: 23.1 µM [cytotoxic, single point] | –
20 | CSCC[C@H](NC(=O)N1CCn2c1nc1ccccc12)C(=O)NCc1ccco1 | – | inconclusive: -8.7%
21 | Cc1ccc(NC(=O)CCCNC(=O)c2ccc(Cl)cc2)cc1S(=O)(=O)N1CCOCC1 | inconclusive: 29.1 µM [cytotoxic, single point] | –
22 | O=C(/C=C/c1ccccc1Cl)Nc1ccncc1 | – | inactive: 7.33%
23 | COc1cccc(Nc2cc(-c3ccccc3)nc(C)n2)c1 | – | inactive: 6.45%
24 | CCn1cc(CNC(=O)c2cc(-c3cc(OC)ccc3OC)nc3ccccc23)c(C)n1 | inconclusive: 13 µM [cytotoxic, partial curve] | –

Single records, as listed above. Values in the order: Potency | activity change, negative = cytotoxicity
Clc1nc(Cl)c2ncn(-c3ccccc3)c2n1 as listed: inconclusive: 25.9 µM [cytotoxic, single point] | –
CN=c1scc(-c2cccs2)n1/N=C/c1ccccc1O as listed: inconclusive: 20.6 µM [cytotoxic, single point] | –
Cc1ccc(C2(CCNS(=O)(=O)c3ccc(C)cc3)CCOC(C(C)C)C2)cc1 (configuration not stated) as listed: active: 3.66 µM | –
C=C(C)C1CC=C(C)/C(=N/NC(=O)COc2ccccc2Cl)C1 (configuration not stated) as listed: inconclusive: 0.291 µM [cytotoxic, full curve, poor fit] | –

Next compounds

Row | SMILES | Potency | activity change, negative = cytotoxicity
25 | Cc1cc(C(=O)N/N=C/c2ccc[nH]2)no1 | – | inactive: 22.6%
26 | O=C(c1cc(S(=O)(=O)NCc2ccco2)ccc1Br)N1CCOCC1 | – | inactive: -2.73%
27 | COc1ccc(C)cc1S(=O)(=O)NC(C)C(=O)NC1CC1 (configuration not stated) | inconclusive: 4.11 µM [rising, full curve] | –
28 | N#Cc1nnn2c1nc(N)c1c(Cl)cccc12 | active: 0.58 µM | –
29 | O=c1[nH]c2ccccc2n1C1CCN(CCOc2ccccc2)CC1 | inconclusive: 23.1 µM [cytotoxic, single point] | –
30 | COC(=O)c1ccccc1NC(=S)N(Cc1ccc2c(c1)OCO2)Cc1cc2ccc(OC)cc2[nH]c1=O | – | inactive: 0%
31 | CCN(CC)S(=O)(=O)c1ccc(N2CCOCC2)c(NC(=O)c2cc3ccccc3oc2=O)c1 | inconclusive: 7.31 µM [cytotoxic, partial curve, poor fit] | –
32 | S=c1nc(-c2ccccc2)n(CCCn2ccnc2)c2c1CCCC2 | inconclusive: 18.4 µM [rising, partial curve, poor fit] | –
33 | O=C(c1ccccc1)c1ccc(NCCCn2ccnc2)c([N+](=O)[O-])c1 | active: 5.17 µM | –
34 | CN(C)C(=O)c1cn(-c2ccccc2)nc1-c1cc2ccccc2oc1=O | inconclusive: 23.1 µM [cytotoxic, single point] | –
35 | CN(C)S(=O)(=O)c1ccc(NC(=O)CN2CCCc3ccccc32)cc1 | inconclusive: 7.31 µM [cytotoxic, partial curve] | –
36 | COc1ccc(NS(=O)(=O)c2ccc(SC)cc2)c(OC)c1 | active: 18.4 µM | –
37 | CCOc1cc([N+](=O)[O-])cc(/C=N/NC(=O)c2c(-c3ccccc3)noc2C)c1O | inconclusive: 29.1 µM [cytotoxic, single point] | –
38 | CC1CN(C(=O)CSc2nnc(C3CCCCC3)n2N)CC(C)O1 (configuration not stated) | inconclusive: 7.31 µM [rising, partial curve] | –
39 | Cc1cccc(N(C(=O)c2csnn2)C(C(=O)NC2CCCCC2)c2ccncc2)c1 (configuration not stated) | inconclusive: 7.31 µM [rising, partial curve] | –
40 | Cc1ccc(N=C2SC(C(=O)Nc3ccc(OC(F)(F)F)cc3)C(N)=C2C(=O)Nc2c(C)cc(C)cc2C)cc1 (configuration not stated) | inconclusive: 29.1 µM [cytotoxic, single point] | –
41 | CC1CCCCN1CC(=O)Nc1ccccc1Sc1ccccc1 (configuration not stated) | inconclusive: 20.6 µM [cytotoxic, single point] | –
42 | COc1cc2ccc(-c3ccc4ccccc4n3)cc2cc1OC | inconclusive: 16.4 µM [cytotoxic, single point] | –
43 | CCOC(=O)N1CCC(n2c(SCC(=O)NCc3ccccc3)nc3ccccc3c2=O)CC1 | – | inactive: 0%
44 | O=C(CSc1nnc(CN2CCOCC2)n1-c1ccccc1)Nc1ccc(Cl)cc1 | inconclusive: 16.4 µM [cytotoxic, single point] | –
45 | NNC(=O)c1cc(Br)cs1 | – | inactive: 15.4%
46 | CCn1c(SCC(=O)NCc2ccccc2)nnc1-c1ccccc1O | inconclusive: 18.4 µM [cytotoxic, single point] | –
47 | COc1cc(NC(=O)CN(C)Cc2cccc(F)c2)c(C)cc1[N+](=O)[O-] | inconclusive: 1.64 µM [cytotoxic, full curve] | –
48 | CC(C)(C)OC(=O)NC(CO)c1cn([C@@H](Cc2cc3ccccc3[nH]2)C(=O)N2CCN(C(=O)OC(C)(C)C)CC2)nn1 (some centres not stated) | – | inactive: -3.08%

Row | SMILES | Potency | activity change, negative = cytotoxicity
49 | O=C(Nc1ccccc1)C1Cc2c(-c3ccco3)ccnc2O1 (configuration not stated) | inconclusive: 18.4 µM [cytotoxic, partial curve] | –
50 | O=C(Cn1nc(C(F)F)cc1C1CC1)NCCC1=CCCCC1 | inconclusive: 9.2 µM [cytotoxic, partial curve] | –
51 | COc1cc(/C=N/N=C(/C(=O)c2ccccc2)c2ccccc2)cc(OC)c1O | active: 9.2 µM | –
52 | COc1ccccc1NC(=S)N(Cc1ccco1)Cc1cc2cc(C)c(C)cc2[nH]c1=O | active: 2.59 µM | –
53 | Cc1ccc2nc(NC(=O)C3CCN(S(=O)(=O)c4cccs4)CC3)sc2c1 | active: 4.61 µM | –
54 | Cc1cc(C)cc(NC(=O)COc2coc(CN3CCc4ccccc43)cc2=O)c1 | inconclusive: 20.6 µM [cytotoxic, single point] | –
55 | CCOc1cc(N2CCOCC2)c(OCC)cc1NC(=O)Cn1cnnn1 | – | inactive: -20.3%
56 | C#CCOc1ccccc1C(N)=O | – | inactive: 24%
57 | NS(=O)(=O)c1ccc(Sc2ccccn2)c([N+](=O)[O-])c1 | – | inactive: -4.3%
58 | COc1ccc(N2CCN(C(=O)C(NC(=O)c3c(F)cccc3F)C(C)C)CC2)cc1 (configuration not stated) | inconclusive: 9.2 µM [cytotoxic, partial curve] | –
59 | CC12CCC(C(=O)N(c3nccs3)C1=O)C2(C)C (configuration not stated) | – | inactive: 12.4%
60 | Cc1occc1-c1nnc(SCC(=O)Nc2ccccc2N2CCCCC2)n1C | inconclusive: 16.4 µM [cytotoxic, partial curve, poor fit] | –
61 | COC(=O)c1cccc(NC(=O)CSc2nc(O)c(-c3ccccc3)c(=O)[nH]2)c1 | inconclusive: 25.9 µM [rising, single point] | –
62 | O=C(Cn1c2c(c(-c3ccccc3Cl)cc1=O)CCC2)NCCCN1CCOCC1 | – | inactive: -1.53%
63 | Cc1nc2ccc3nc(NC(=O)c4ccco4)sc3c2s1 | inconclusive: 6.51 µM [cytotoxic, full curve] | –
64 | NC(=O)NC(=O)Nc1ccccc1Cl | inconclusive: 29.1 µM [cytotoxic, single point] | –
65 | Cc1[nH]c2ccccc2c1C(=O)COC(=O)c1ccccc1O | – | inactive: -3.5%
66 | COc1cc(OC)cc(C(=O)Nc2cc(C)nn2-c2ccccc2)c1 | – | inactive: -19.6%
67 | O=C(NN1C(=O)c2ccccc2NC1c1ccc([N+](=O)[O-])o1)c1ccc([N+](=O)[O-])cc1 (configuration not stated) | inconclusive: 14.6 µM [rising, partial curve] | –
68 | COC(=O)c1cc(Cl)c(NC(=O)/C=C/c2ccc(OC)c(OC)c2)cc1OC | inconclusive: 5.17 µM [cytotoxic, partial curve] | –
69 | COc1ccc(OCC(O)CN2CCCC2)cc1 (configuration not stated) | inconclusive: 5.8 µM [cytotoxic, full curve] | –
70 | C/C(=N\NC(=S)Nc1ccc(C)cc1)c1cc2ccccc2o1 | inconclusive: 10.3 µM [cytotoxic, partial curve, poor fit] | –
71 | CC(=O)Nc1ccc(S(=O)(=O)NC2CC(=O)N(c3ccc(C)cc3)C2)cc1 (configuration not stated) | – | inactive: 23.9%
72 | Cc1ccc(-c2cn3c(n2)sc2cc(C(=O)NCc4cccs4)ccc23)cc1 | – | inactive: 2.47%

From PubChem BioAssay AID1347076 (National Center for Advancing Translational Sciences (NCATS), 2019)
